# Results reported in the supplement of paper PMC10735217.
# Structures can show the parent of a compound that is named as a salt. The list shows a part of the results. Single values are uncertain here, since repeats match poorly.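 Human kidney-derived cells stably carry a construct in which eight TEAD-binding elements drive luciferase, measured by luminescence in a drug-repurposing library screen. A hit is any compound whose signal exceeds the plate mean by more than five robust Z scores.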
# Test system: HEK293A TEAD-LUC reporter
# Assay: TEAD-luciferase reporter activity (YAP activation), robust Z score vs plate; higher = stronger YAP/TEAD activation
# Conditions: 24 h
SMILES,TEAD-luciferase reporter activity (compound concentration: 200 nM),TEAD-luciferase reporter activity (compound concentration: 10 uM),TEAD-luciferase reporter activity (compound concentration: 2 uM)
CCN(CCO)CCCC(C)Nc1ccnc2cc(Cl)ccc12 (configuration not stated),inactive: -0.721,inactive: 4.33,
CC(=O)C1c2cccc(O)c2C(=O)c2c(O)cccc21,inactive: -0.739,inactive: 0.367,inactive: 1.96
C[C@@H](NC(=O)[C@H](N)Cc1c[nH]c2ccccc12)C(=O)O,inactive: -2.61,inactive: 1.01,inactive: -1.34
COCCNC(=O)c1cccc(C(=O)NCCOC)n1,inactive: -1.04,inactive: -1.43,inactive: -1.99
CS(=O)(=O)c1ccccc1-c1ccc(NC(=O)c2cc(C(F)(F)F)nn2-c2cccc(CN)c2)c(F)c1,inactive: -0.772,inactive: 0.101,inactive: -0.359
COc1cc(C)c(S(=O)(=O)N(C)CCOCC(=O)N(C)Cc2ccc(C3=NCCN3)cc2)c(C)c1,inactive: -1.14,inactive: 0.688,inactive: 3.07
Nc1c2c(nc3ccccc13)CCCC2O (configuration not stated) [Velnacrine maleate],,,inactive: -0.325
Nc1c2c(nc3ccccc13)CCCC2O (configuration not stated) [Hydroxytacrine maleate],inactive: -3.01,inactive: -0.911,
CCOC(=O)C1=C(CN2CCOCC2)NC(c2nccs2)=NC1c1ccc(F)cc1Br (configuration not stated) [Morphothiadin],inactive: -0.463,inactive: 1.21,inactive: -0.438
O=C1Cc2c(ccc3c2OC(CNCc2ccccc2)CO3)N1 (configuration not stated) [Aplindore fumarate],inactive: -0.75,inactive: 3.33,inactive: -0.843
Cc1c(Cl)cc2c(c1C)OC(C(F)(F)F)C(C(=O)O)=C2 (configuration not stated),inactive: 0.0841,inactive: -2.21,inactive: -0.138
CNCC(O)c1ccc(O)c(O)c1 (configuration not stated) [Epinephrine],,,inactive: 0.227
CC(=O)Oc1ccccc1C(=O)Nc1nccs1,inactive: 0.548,inactive: -0.114,inactive: -0.245
CCN(Cc1ccccc1)C(=O)Cn1c(=O)n(C)c2cnc(-c3ccccc3)nc21 [Emapunil],inactive: -2.82,inactive: -0.555,inactive: -0.523
COc1cccc(C(O)C2CCN(CCc3ccc(F)cc3)CC2)c1OC (configuration not stated) [Volinanserin],inactive: 2.88,inactive: 1.02,inactive: -1.15
O=C(C1CCCC1)N1CC2(CCN(Cc3ccc(Cl)cc3)CC2)Cc2ccccc21,inactive: -0.568,inactive: 2.78,
CC(C)(C)c1cc(/C=C2\SCNC2=O)cc(C(C)(C)C)c1O,inactive: -0.125,inactive: -0.523,inactive: -1.21
COCCn1nc(-c2ccc(OCCCC(F)(F)F)cc2)oc1=O,inactive: -0.1,inactive: -0.51,inactive: -1.08
O=C(Nc1ccc(C(=O)N2C[C@@H]3COCCN3Cc3ccccc32)c(Cl)c1)c1ccccc1-c1ccccc1,inactive: -2.19,inactive: 1.55,inactive: -0.817
Cc1ccccn1 [2-Methylpyridine],inactive: -1.09,inactive: -1.32,inactive: -1.57
Nc1nc(OCc2ccccc2)c2nc[nH]c2n1 [O6 benzyl guanine],,,inactive: -1.74
Nc1nc(OCc2ccccc2)c2nc[nH]c2n1 [O6-benzylguanine],inactive: 0.526,inactive: -0.599,
CCN1CC(NC(=O)c2cc(Cl)c(N)cc2OC)CN1CC,inactive: -1.48,inactive: -1.33,inactive: -1.49
C/C1=C\CC[C@@]2(C)O[C@@H]2[C@H]2OC(=O)[C@@H](CN(C)C)[C@@H]2CC1 [Dimethylaminoparthenolide],inactive: -0.527,inactive: -0.127,inactive: 0.856
Cn1c(Nc2ccc(C(F)(F)F)cc2)nc2cc(Oc3ccnc(-c4ncc(C(F)(F)F)[nH]4)c3)ccc21,inactive: -1.7,inactive: 2.34,inactive: -1.55
O=c1c2ccccc2nnn1N1CCOCC1,inactive: -1.23,inactive: -1.02,inactive: -1.58
CN1CCN(CCCN2c3ccccc3Sc3ccc(Cl)cc32)CC1,inactive: 4.56,inactive: -0.93,
"CN1CCN(CCCN2c3ccccc3Sc3ccc(Cl)cc32)CC1 [prochlorperazine, Alexza]",,,inactive: -0.583
COc1cc2c(cc1OC)CN(CCc1ccc(NC(=O)c3cc(OC)c(OC)cc3NC(=O)c3cnc4ccccc4c3)cc1)CC2 [tariquidar],inactive: -0.859,inactive: 0.281,inactive: -0.89
COc1c(/C=C/c2ccc(NS(C)(=O)=O)cc2)cc(-n2ccc(=O)[nH]c2=O)cc1C(C)(C)C,inactive: 0.788,inactive: -0.907,inactive: -0.47

# Not a retest: entries from further up.
SMILES,TEAD-luciferase reporter activity (compound concentration: 200 nM),TEAD-luciferase reporter activity (compound concentration: 10 uM),TEAD-luciferase reporter activity (compound concentration: 2 uM)
CS(=O)(=O)c1ccccc1-c1ccc(NC(=O)c2cc(C(F)(F)F)nn2-c2cccc(CN)c2)c(F)c1,inactive: -0.772,inactive: 0.101,inactive: -0.359
COc1cc(C)c(S(=O)(=O)N(C)CCOCC(=O)N(C)Cc2ccc(C3=NCCN3)cc2)c(C)c1,inactive: -1.14,inactive: 0.688,inactive: 3.07
